Assay results published in paper PMC2174531.
These are yes or no findings as the source states them, for the method shown. In cells and extracts the contact can be indirect. Some binding calls cover weakened binding; strength is not graded here. Tags and fused reporters may be left off the sequences shown.

By UniProt entry, the sequences of proteins in these tests, tags left out.
UniProt P38398: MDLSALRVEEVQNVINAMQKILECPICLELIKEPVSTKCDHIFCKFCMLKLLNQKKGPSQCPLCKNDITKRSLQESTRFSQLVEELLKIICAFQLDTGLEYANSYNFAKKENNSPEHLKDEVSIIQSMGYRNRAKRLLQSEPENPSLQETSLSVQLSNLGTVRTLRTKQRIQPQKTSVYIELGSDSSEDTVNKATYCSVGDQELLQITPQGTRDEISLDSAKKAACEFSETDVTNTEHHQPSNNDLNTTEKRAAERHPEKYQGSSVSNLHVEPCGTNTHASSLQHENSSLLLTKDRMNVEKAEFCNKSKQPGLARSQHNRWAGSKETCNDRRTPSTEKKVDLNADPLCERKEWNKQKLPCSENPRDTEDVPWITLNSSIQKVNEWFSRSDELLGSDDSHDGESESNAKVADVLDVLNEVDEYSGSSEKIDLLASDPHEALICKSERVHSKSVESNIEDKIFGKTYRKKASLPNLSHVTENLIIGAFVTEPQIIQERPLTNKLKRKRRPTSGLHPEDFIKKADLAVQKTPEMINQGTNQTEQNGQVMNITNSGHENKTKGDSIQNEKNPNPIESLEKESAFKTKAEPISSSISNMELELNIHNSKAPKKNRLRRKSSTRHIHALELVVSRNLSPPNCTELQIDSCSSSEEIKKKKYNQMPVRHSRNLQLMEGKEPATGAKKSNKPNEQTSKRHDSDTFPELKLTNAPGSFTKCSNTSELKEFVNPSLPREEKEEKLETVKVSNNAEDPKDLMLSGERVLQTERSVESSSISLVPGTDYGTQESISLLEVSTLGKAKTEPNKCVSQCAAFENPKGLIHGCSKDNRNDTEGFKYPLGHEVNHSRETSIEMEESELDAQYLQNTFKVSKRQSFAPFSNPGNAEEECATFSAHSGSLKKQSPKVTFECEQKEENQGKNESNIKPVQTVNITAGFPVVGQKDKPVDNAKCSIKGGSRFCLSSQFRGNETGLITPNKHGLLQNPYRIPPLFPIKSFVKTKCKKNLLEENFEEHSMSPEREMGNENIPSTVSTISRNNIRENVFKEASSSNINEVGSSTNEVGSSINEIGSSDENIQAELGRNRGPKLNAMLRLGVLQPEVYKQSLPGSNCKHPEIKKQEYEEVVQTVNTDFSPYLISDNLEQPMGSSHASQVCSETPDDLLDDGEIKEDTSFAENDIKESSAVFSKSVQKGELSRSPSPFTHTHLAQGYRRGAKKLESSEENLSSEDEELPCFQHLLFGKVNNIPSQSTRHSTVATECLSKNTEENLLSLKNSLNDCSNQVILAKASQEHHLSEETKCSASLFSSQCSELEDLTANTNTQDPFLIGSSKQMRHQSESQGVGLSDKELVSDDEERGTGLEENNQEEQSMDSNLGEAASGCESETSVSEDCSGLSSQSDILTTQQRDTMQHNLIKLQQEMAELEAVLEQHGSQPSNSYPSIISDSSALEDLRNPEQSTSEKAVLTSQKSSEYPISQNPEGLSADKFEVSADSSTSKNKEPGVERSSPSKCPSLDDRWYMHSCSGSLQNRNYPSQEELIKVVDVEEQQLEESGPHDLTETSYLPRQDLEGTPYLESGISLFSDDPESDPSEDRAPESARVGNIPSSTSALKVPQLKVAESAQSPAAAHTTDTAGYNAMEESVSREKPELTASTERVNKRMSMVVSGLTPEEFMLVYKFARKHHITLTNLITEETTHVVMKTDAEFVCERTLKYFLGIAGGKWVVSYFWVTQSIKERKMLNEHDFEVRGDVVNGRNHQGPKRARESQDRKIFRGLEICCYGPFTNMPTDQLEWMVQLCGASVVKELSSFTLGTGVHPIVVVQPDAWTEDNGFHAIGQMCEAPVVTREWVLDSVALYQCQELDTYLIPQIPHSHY

Target: BRCA1 (full-length wild type, expressed in yeast from the GAL::BRCA1 plasmid) (human) (UniProt P38398)
Assay: co-IP; yeast whole cell lysates co-expressing BRCA1 and Spt4-V5, prepared in various concentrations of NP40; IP overnight at 4°C with anti-BRCA1 antibody (MS110) or normal mouse IgG; blot with anti-V5; maximal at 0.8% NP40

binding: binds
B1: V5 tagged Spt4p (protein, UniProt P32914 1-102)
chain: MSSERACMLCGIVQTTNEFNRDGCPNCQGIFEEAGVSTMECTSPSFEGLVGMCKPTKSWVAKWLSVDHSIAGMYAIKVDGRLPAEVVELLPHYKPRDGSQVE
